Measurements reported in PubChem BioAssay AID652243 (Drosophila RNAi Screening Center, 2013).

- Screen: 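Fly regulators of androgen-dependent reporter output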 (primary screen)
- System: Drosophila S2R+ cells
- Reagent: long dsRNA against Drosophila genes
- Time to read-out: 72 h (48 h, then 24 h hormone)
- Challenge: synthetic androgen R1881 at 10 nM for 24 h
- Measurement: 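Firefly light from an androgen-responsive reporter and Renilla control light per well, raw and unnormalised, for each of two replicates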
- Direction: firefly reporter light: higher = more light from androgen-responsive reporter; Renilla control light: higher = more constitutive control signal (cell number, transfection)
- Hit rule: 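Hit when the log firefly-to-Renilla ratio dropped or increased by a fixed fold versus the mean of GFP or LacZ controls across duplicate plates; lowering cut given as 1.5 and as 3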
- Meaning of the calls: active = hit: reporter lowered or raised; inactive = no hit
The deposit covers about 24,000 reagents; below is a random part of those with a known target gene and a result. In the full data, 246 (1%) got an active call. 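Plates not normalised; calls are printed but the firefly/Renilla ratio behind them is not deposited; fold cut for lowering reported inconsistently.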 Raw values vary from plate to plate and are shown uncorrected. Reagents against one gene are numbered here. A plus sign joins genes that one reagent is predicted to hit. Reagent sequences are not shown. Not stated in the record: the amount of reagent.

The first 3 entries, to show the layout:
gene	dsRNA no.	firefly reporter light, replicate 1	firefly reporter light, replicate 2	Renilla control light, replicate 1	Renilla control light, replicate 2	call
CG11438	1	2.64e5	2.40e5	1.97e6	2.33e6	inactive
CG11438	2					inactive
ATPsynF	1	6.89e5	5.50e5	2.01e6	1.61e6	inactive

The listing, from the first entry:
gene	dsRNA no.	firefly reporter light, replicate 1	firefly reporter light, replicate 2	Renilla control light, replicate 1	Renilla control light, replicate 2	call
CG11438	1	2.64e5	2.40e5	1.97e6	2.33e6	inactive
CG11438	2					inactive
ATPsynF	1	6.89e5	5.50e5	2.01e6	1.61e6	inactive
ERp60	1	7.25e5	1.06e6	1.21e6	1.17e6	inactive
ERp60	2	5.73e5	2.68e5	6.12e5	4.47e5	inactive
CG1409	1	2.33e5	3.13e5	2.53e6	2.79e6	inactive
Cbl	1	2.38e5	2.75e5	3.14e6	2.33e6	inactive
Cbl	2	90230	1.12e5	1.56e6	1.31e6	inactive
Cbl	3	5.45e5	4.06e5	1.65e6	1.53e6	inactive
Cdk8	1	3.88e5	5.48e5	1.05e6	1.35e6	inactive
Cdk8	2	2.59e5	2.07e5	1.89e6	1.54e6	active
CG6429	1	79997	73978	1.19e6	1.19e6	inactive
Uev1A	1	6.53e5	5.53e5	1.66e6	2.25e6	inactive
ChLD3	1	2.67e5	2.03e5	2.12e6	1.65e6	inactive
Dark	1	9.48e5	8.81e5	1.71e6	1.12e6	inactive
Dark	2	3.80e5	1.85e5	4.87e5	6.05e5	inactive
Apt1	1	1.87e5	91716	2.27e6	1.13e6	inactive
Mst87F	1	1.47e5	1.62e5	2.01e6	2.51e6	inactive
Mst87F	2	7.00e5	4.96e5	8.18e5	5.40e5	inactive
CkIIalpha-i1	1	3.22e5	2.21e5	2.52e6	1.81e6	inactive
Dgk	1	39912	22683	1.81e5	2.08e5	active
Dgk	2	1.35e5	2.52e5	3.90e5	3.94e5	inactive
Dgk	3	3.92e5	3.54e5	2.50e6	1.94e6	inactive
Dgk	4	4.71e5	6.32e5	1.89e6	1.96e6	active
Dgk	5	3.11e5	3.00e5	4.07e5	3.44e5	inactive
CG12693	1	1.72e5	2.06e5	2.78e6	2.77e6	inactive
c-cup	1	87837	94462	7.43e5	8.73e5	inactive
tous	1	5.93e5	6.90e5	1.35e6	8.58e5	inactive
CG2310	1	1.73e5	1.18e5	1.97e6	2.25e6	inactive
Notum	1	1.84e5	1.62e5	1.61e6	1.13e6	inactive
Tcs3	1	2.43e5	1.58e5	2.66e6	1.12e6	inactive
Tcs3	2	4.31e5	3.17e5	1.09e6	9.61e5	inactive
Ir56a	1	2.31e5	2.21e5	4.54e5	1.23e5	inactive
Ir56a	2	3.31e5	4.76e5	1.56e6	1.20e6	inactive
CG1418	1	5.25e5	2.99e5	1.80e6	1.50e6	inactive
CG1418	2	3.67e5	3.81e5	3.88e5	6.22e5	inactive
Eglp4	1	2.88e5	2.54e5	1.81e6	1.99e6	inactive
Eglp4	2	3.06e5	4.05e5	9.22e5	8.18e5	inactive
CG7997	1	1.04e6	9.48e5	1.75e6	1.37e6	inactive
CG7997	2	8.04e5	6.85e5	6.81e5	1.20e6	inactive
CkIalpha	1	3.86e5	4.20e5	1.46e6	1.35e6	active
CkIalpha	2	5.62e5	6.03e5	9.04e5	9.15e5	inactive
CkIalpha	3	1.37e6	9.03e5	1.86e6	1.53e6	inactive
CkIalpha	4	5.97e5	3.88e5	3.02e5	3.94e5	active
NaPi-III	1	6.45e5	4.58e5	6.32e5	6.61e5	inactive
NaPi-III	2	5.24e5	8.81e5	7.25e5	1.59e6	inactive
NaPi-III	3	7.80e5	7.82e5	1.44e6	1.96e6	inactive
NaPi-III	4	4.24e5	4.46e5	1.18e6	7.99e5	inactive
CG3198	1	3.92e5	4.45e5	3.16e6	3.25e6	inactive
CG3198	2	1.35e5	1.40e5	1.39e6	1.33e6	inactive
CG3198	3	9.91e5	8.27e5	1.91e6	1.74e6	inactive
CG34056	1	72223	41174	5.92e5	5.56e5	inactive
Ip6k	1	4.81e5	3.78e5	1.56e6	1.35e6	inactive
Ip6k	2	9.89e5	7.80e5	1.15e6	9.45e5	inactive
Megf8	1	7.10e5	8.62e5	1.62e6	1.71e6	inactive
Eip63E	1	6.71e5	1.07e6	1.08e6	1.20e6	inactive
Eip63E	2					inactive
ATP8A	1	1.53e5	2.12e5	4.04e5	4.51e5	inactive
ATP8A	2	6.12e5	3.49e5	1.78e6	1.18e6	inactive
ATP8A	3	65376	98060	7.30e5	7.30e5	inactive
CG43367 + asRNA:CR32252	1	5.19e5	5.68e5	9.19e5	1.43e6	inactive
CG15741	1	1.53e5	1.31e5	1.69e6	1.74e6	inactive
CG15741	2	3.13e5	2.84e5	6.06e5	5.01e5	inactive
Act42A	1	3.10e5	2.28e5	1.33e6	1.07e6	inactive
Act42A	2	1.35e6	1.26e6	8.23e5	1.06e6	inactive
CG5404	1	4.49e5	5.53e5	1.58e6	1.35e6	inactive
CG5404	2	5.26e5	5.75e5	5.86e5	6.30e5	inactive
CG4360	1	2.51e5	2.60e5	2.56e6	2.87e6	inactive
CG4360	2	7.94e5	7.12e5	1.77e6	1.55e6	inactive
CG12608	1	61748	91206	6.41e5	5.74e5	inactive
Cyp9f2	1	77933	59144	5.35e5	7.78e5	inactive
CG9837	1	1.18e5	1.05e5	2.08e6	2.33e6	inactive
CG9837	2	6.62e5	4.88e5	2.17e6	1.44e6	inactive
CG8252	1	6.57e5	7.60e5	1.06e6	8.68e5	inactive
CG8252	2	5.64e5	5.48e5	1.34e6	1.41e6	inactive
